Measurements reported in the supplement of paper PMC10849652.
Some of the results follow. Residues, ends and D or L forms follow the SMILES beside them. *: point of attachment. Cbz = O=C(OCc1ccccc1)*

Sequences of proteins named here, by UniProt entry; tags and fusion partners are left off. A change or cut given only in a name is not applied to a line headed by its entry.
UniProt O60925, whole entry, looked up: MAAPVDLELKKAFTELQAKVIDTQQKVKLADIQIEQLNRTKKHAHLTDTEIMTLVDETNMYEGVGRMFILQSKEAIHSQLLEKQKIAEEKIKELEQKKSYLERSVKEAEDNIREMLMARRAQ
UniProt Q9NXJ5: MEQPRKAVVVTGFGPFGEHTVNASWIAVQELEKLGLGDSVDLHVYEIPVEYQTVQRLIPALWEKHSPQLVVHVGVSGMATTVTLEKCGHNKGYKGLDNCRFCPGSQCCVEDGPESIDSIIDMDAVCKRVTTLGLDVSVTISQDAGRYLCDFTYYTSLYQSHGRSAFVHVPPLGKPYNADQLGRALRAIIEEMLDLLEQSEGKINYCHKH
UniProt O95394: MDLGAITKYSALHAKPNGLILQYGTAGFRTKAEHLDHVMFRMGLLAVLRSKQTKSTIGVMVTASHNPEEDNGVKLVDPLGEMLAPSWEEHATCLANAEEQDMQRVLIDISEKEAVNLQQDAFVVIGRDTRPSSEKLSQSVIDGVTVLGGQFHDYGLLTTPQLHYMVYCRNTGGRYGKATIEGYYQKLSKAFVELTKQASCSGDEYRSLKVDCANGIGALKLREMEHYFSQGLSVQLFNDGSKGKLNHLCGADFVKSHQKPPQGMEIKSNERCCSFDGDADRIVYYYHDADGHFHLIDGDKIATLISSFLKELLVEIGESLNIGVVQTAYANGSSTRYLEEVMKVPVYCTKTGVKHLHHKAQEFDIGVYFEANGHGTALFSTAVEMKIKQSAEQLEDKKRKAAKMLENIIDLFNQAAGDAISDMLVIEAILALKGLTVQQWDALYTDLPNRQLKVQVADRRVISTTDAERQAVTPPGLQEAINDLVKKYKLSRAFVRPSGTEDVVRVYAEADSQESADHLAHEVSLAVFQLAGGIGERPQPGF
UniProt Q16513: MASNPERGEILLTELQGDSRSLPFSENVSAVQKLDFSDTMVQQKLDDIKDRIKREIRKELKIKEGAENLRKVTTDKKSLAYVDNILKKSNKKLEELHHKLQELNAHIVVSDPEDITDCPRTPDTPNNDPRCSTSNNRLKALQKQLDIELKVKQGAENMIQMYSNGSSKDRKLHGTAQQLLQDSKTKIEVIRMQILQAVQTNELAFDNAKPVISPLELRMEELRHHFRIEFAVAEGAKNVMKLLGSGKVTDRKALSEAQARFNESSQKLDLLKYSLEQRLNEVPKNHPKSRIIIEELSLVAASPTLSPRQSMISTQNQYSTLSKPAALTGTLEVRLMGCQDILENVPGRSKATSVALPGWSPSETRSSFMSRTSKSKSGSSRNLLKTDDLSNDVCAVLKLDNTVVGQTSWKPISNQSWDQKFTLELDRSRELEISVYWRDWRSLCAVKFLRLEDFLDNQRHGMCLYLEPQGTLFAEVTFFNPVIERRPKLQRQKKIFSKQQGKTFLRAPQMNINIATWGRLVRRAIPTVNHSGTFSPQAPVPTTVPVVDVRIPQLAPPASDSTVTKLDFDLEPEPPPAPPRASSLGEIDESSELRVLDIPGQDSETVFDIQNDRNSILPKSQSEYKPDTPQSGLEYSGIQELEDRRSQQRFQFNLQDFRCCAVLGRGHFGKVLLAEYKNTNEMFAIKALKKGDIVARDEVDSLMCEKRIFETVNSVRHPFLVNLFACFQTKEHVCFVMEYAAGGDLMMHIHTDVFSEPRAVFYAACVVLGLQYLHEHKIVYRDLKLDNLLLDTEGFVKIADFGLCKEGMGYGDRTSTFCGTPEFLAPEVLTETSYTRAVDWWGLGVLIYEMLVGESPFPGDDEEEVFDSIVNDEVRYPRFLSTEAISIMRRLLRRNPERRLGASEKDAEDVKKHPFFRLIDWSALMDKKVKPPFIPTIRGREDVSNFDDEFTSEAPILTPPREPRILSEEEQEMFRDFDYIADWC
UniProt Q14442: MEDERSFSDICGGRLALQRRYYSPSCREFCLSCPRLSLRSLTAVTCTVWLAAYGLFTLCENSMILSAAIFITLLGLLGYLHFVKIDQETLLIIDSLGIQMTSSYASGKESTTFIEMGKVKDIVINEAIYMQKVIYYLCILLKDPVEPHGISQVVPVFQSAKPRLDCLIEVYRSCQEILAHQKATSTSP
UniProt Q8NCC3: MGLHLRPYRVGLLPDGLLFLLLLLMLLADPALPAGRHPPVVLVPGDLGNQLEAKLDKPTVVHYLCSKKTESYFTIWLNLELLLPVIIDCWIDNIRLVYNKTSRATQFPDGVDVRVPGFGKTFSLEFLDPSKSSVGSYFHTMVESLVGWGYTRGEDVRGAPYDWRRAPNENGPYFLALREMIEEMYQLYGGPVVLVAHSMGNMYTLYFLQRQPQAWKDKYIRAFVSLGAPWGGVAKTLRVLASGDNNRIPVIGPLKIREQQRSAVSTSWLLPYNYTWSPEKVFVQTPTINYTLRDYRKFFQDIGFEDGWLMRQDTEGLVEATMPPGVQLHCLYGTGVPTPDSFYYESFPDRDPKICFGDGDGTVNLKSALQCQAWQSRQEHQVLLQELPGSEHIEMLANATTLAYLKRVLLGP
UniProt O00329: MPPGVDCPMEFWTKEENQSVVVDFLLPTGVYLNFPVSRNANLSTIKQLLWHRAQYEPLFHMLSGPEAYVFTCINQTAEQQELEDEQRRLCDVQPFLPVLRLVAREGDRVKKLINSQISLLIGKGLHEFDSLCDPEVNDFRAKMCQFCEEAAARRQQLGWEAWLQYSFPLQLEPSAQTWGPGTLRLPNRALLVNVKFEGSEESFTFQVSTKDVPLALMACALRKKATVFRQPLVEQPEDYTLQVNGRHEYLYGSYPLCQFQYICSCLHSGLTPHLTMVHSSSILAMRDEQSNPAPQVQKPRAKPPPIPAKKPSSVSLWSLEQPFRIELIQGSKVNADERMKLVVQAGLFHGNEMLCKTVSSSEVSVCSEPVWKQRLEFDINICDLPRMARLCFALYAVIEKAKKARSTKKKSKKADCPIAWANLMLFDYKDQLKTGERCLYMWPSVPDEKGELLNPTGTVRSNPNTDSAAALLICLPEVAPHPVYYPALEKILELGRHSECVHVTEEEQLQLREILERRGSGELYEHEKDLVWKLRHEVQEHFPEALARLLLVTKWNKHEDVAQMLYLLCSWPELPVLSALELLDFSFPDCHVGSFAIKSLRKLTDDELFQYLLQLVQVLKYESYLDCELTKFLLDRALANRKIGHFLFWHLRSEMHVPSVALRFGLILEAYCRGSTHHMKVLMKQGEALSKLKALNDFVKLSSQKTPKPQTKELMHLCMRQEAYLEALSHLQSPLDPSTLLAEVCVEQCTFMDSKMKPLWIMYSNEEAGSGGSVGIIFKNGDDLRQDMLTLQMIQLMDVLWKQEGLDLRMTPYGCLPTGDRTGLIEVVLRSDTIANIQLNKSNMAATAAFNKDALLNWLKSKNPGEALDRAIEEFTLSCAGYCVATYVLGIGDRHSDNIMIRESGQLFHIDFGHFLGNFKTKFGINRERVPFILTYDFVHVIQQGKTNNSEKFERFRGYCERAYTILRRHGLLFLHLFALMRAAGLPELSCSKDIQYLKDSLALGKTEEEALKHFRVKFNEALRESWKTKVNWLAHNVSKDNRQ
PIGBOS1, A0A0B4J2F0, UniProt A0A0B4J2F0, whole entry, looked up: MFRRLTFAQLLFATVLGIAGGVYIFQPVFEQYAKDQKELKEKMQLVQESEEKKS
UniProt Q5JRX3: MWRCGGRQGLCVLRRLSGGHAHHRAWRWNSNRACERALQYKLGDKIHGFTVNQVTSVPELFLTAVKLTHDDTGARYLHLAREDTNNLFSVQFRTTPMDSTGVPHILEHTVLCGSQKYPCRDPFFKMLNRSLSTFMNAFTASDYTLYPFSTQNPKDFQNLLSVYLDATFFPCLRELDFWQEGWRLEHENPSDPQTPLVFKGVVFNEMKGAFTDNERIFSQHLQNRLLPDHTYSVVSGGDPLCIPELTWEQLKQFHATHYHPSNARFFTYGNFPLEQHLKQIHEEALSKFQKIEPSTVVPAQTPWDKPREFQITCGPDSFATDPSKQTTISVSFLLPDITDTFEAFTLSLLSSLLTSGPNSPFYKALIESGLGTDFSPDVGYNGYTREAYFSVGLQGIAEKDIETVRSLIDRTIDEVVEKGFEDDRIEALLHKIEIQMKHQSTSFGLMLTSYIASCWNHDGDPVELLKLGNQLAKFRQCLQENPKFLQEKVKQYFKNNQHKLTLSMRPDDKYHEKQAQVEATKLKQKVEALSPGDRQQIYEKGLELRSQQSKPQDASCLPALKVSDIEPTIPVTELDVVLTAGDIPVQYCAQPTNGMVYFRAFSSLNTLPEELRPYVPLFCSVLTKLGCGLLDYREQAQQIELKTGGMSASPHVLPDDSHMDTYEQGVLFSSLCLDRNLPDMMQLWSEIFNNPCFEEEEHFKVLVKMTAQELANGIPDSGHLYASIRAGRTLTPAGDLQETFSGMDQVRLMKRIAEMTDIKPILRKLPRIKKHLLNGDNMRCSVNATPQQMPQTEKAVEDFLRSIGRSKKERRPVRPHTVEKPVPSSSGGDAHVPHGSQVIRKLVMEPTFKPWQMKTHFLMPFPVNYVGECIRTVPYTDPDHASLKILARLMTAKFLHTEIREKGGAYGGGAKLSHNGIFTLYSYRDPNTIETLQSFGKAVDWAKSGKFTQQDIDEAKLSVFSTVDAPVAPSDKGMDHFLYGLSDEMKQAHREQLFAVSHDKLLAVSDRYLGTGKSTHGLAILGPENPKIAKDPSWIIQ
UniProt Q8NHP8: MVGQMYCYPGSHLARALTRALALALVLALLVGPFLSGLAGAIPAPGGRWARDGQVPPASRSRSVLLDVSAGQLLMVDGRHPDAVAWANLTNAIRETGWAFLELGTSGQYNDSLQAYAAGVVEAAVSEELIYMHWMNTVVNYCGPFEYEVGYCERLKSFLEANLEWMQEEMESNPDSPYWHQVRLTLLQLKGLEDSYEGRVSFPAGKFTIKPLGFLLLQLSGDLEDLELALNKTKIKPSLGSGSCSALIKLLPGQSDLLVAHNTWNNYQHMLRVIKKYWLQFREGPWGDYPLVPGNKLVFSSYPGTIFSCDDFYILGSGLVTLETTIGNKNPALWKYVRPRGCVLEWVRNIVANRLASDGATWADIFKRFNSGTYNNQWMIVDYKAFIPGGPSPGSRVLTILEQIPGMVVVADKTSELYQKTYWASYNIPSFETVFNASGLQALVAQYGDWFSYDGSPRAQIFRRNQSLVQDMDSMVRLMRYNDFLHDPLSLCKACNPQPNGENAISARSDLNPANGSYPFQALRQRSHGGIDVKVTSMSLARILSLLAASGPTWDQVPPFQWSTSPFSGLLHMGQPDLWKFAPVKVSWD
UniProt Q8NEB9, whole entry, looked up: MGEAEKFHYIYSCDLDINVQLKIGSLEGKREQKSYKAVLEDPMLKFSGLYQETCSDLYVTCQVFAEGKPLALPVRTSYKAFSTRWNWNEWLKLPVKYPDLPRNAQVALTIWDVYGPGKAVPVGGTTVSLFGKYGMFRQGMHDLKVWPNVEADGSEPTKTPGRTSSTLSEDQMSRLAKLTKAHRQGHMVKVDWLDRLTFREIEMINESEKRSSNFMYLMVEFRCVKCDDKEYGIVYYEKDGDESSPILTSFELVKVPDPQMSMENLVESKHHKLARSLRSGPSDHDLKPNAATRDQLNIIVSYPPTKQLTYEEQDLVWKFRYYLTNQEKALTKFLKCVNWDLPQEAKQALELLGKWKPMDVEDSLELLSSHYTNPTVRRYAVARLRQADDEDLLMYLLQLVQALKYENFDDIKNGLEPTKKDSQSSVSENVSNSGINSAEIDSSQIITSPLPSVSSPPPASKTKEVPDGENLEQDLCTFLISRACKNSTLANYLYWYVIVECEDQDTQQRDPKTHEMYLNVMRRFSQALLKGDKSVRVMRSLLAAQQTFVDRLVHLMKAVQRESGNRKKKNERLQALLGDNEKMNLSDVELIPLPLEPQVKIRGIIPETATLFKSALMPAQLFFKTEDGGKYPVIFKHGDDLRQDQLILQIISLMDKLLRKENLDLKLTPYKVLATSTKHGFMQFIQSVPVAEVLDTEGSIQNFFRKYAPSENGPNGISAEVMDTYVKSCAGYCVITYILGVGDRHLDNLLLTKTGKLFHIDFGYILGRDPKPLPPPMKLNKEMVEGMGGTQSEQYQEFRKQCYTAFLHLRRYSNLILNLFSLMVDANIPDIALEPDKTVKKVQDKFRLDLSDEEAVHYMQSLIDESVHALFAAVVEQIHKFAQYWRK
UniProt P56589: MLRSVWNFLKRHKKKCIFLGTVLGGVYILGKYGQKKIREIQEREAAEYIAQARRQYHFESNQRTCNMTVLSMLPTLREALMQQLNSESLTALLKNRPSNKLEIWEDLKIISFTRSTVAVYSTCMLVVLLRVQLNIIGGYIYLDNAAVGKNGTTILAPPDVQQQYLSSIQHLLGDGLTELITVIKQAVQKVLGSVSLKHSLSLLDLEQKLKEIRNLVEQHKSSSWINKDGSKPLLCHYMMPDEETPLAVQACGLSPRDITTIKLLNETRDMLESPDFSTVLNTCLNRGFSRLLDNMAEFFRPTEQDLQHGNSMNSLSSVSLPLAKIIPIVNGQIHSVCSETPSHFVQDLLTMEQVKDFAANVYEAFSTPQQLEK

Assays:
Assay in all cases: log2 fold change, soluble protein after heating vs DMSO (PISA); higher = thermal stabilisation; K562 cells, 10 uM, 30 min; active = over 0.2 and 3.5 SD of the protein, either way, in both replicates (recomputed)
[1] = compound: C#Cc1cccc(Nc2ncnc3cc(OCCOC)c(OCCOC)cc23)c1 [erlotinib]
Outline: (§1)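 Quantification of soluble protein used TMTpro 16plex LC-MS/MS, with channel sums equalised. Samples were the supernatant after 21,000xg for 90 min of pooled aliquots from K562 cells (2×10^6 cells/mL) treated with 10 μM compound for 30 min, heated for 3 min over 48°C-58°C, and extracted in PBS with 0.5% NP-40 at 4°C. Values, from duplicates, describe thermal stability against control samples on a log2 fold-change scale.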

[2] = compound: C/C(=N\NC(=O)C1=CC(=CC=C1)S(=O)(=O)N2CCOCC2)/C3=C(C=CC(=C3)Cl)O
Outline: as §1

[3] = compound: C1=CC(=C(C=C1Cl)C2=NC3=NC=CN=C3C(=N2)NC4=CC=NC=C4)F
Outline: as §1

[4] = compound: C1=CC(=CC=C1C2=NC3=C(N2)C=C(C=C3)C(=O)N)OC4=CC=C(C=C4)Cl
Outline: as §1

[5] = compound: C1=CC2=C(C=CC(=C2)/C=C\3/C(=O)NC(=NCC4=CC=CS4)S3)N=C1
Outline: as §1

[6] = compound: C1=CC2=NC=CN=C2C=C1/C=C/3\C(=O)NC(=O)S3
Outline: as §1

[7] = compound: C1=CC=C(C=C1)C2=NC(=C(N2)C3=CC=NC=C3)C4=CC(=C(C=C4)Cl)O
Outline: as §1

[8] = compound: C1=CC=C2C(=C1)C3=NNC4=CC=CC(=C43)C2=O
Outline: as §1

[9] = compound: C1CCN(C1)C(=O)NC2=CC=CC(=C2)NC3=NC=C(C(=N3)NCCC4=CN=CN4)Br
Outline: as §1

[10] = compound: C1CN(CCC1(CC2=CC=C(C=C2)Cl)N)C3=NC=NC4=C3C=CN4
Outline: as §1

[11] = compound: C1COCCN1CCN2C3=CC=CC=C3N=C2NC(=O)C4=CC(=CC=C4)[N+](=O)[O-] [IRAK-1-4 Inhibitor I]
Outline: as §1

[12] = compound: C=CC(=O)N1CCC[C@@H](n2nc(-c3ccc(Oc4ccccc4)cc3)c3c(N)ncnc32)C1 [ibrutinib]
Outline: as §1

[13] = compound: CC(=O)c1cnc2ccc(-c3cc(Cl)c(O)c(Cl)c3)nc2c1N[C@H]1CC[C@H](CN(C)C)CC1
Outline: as §1

[14] = compound: CC(C)(C)Cn1c(N)nc2ccc(-c3[nH]c(C(C)(C)C)nc3-c3ccc(F)cc3)nc21 [ralimetinib]
Outline: as §1

[15] = compound: CC(C)(O)CC(=O)NCCn1ccc2ncnc(Nc3ccc(Oc4cccc(C(F)(F)F)c4)c(Cl)c3)c21
Outline: as §1

[16] = compound: CC(C)C1=C2N=C(C=C(N2N=C1)NCC3=CC=CC=C3)NCCCCCCN
Outline: as §1

[17] = compound: CC(C)C[C@@H](C=O)NC(=O)[C@H](CC(C)C)NC(=O)[C@H](CC(C)C)NC(=O)OCc1ccccc1
Outline: as §1

[18] = compound: CC(C)N(C[C@H]1O[C@@H](n2cnc3c(N)ncnc32)[C@H](O)[C@@H]1O)[C@H]1C[C@@H](CCc2nc3cc(C(C)(C)C)ccc3[nH]2)C1 [pinometostat]
Outline: as §1

[19] = compound: CC1=C(C2=C(C=C1)C(=O)C3=CC=CC=C3N2CCCN)C
Outline: as §1

[20] = compound: CC1=C(C(CC(=O)N1)C2=CC=C(C=C2)C(F)(F)F)C(=O)NC3=C(C=C4C(=C3)C=NN4)F
Outline: as §1

Target | log2 fold change [1] | log2 fold change [2] | log2 fold change [3] | log2 fold change [4] | log2 fold change [5] | log2 fold change [6] | log2 fold change [7] | log2 fold change [8] | log2 fold change [9] | log2 fold change [10] | log2 fold change [11] | log2 fold change [12] | log2 fold change [13] | log2 fold change [14] | log2 fold change [15] | log2 fold change [16] | log2 fold change [17] | log2 fold change [18] | log2 fold change [19] | log2 fold change [20]
PFDN1 (UniProt O60925) | inactive: -0.018 | inactive: 0.012 | inactive: 0.263 | inactive: 0.07 | inactive: 0.056 | inactive: 0.063 | inactive: 0.137 | inactive: 0.047 | inactive: -0.091 | inactive: -0.057 | inactive: -0.187 | inactive: -0.119 | inactive: -0.002 | inactive: -0.141 | inactive: -0.031 | inactive: 0.062 | inactive: -0.13 | inactive: -0.175 | inactive: 0.254 | –
PGPEP1 (UniProt Q9NXJ5) | inactive: 0.1 | inactive: 0.139 | inactive: -0.02 | inactive: 0.061 | inactive: -0.092 | inactive: 0.032 | inactive: -0.092 | inactive: 0.022 | – | – | inactive: -0.106 | inactive: -0.097 | inactive: -0.211 | inactive: -0.06 | inactive: -0.035 | inactive: -0.271 | inactive: -0.004 | inactive: 0.14 | – | –
PGM3 isoform 4 (UniProt O95394) | inactive: 0.001 | inactive: 0.094 | inactive: 0.045 | inactive: 0.103 | inactive: 0.092 | inactive: 0.001 | inactive: 0.042 | inactive: 0.064 | inactive: -0.005 | inactive: -0.053 | inactive: -0.007 | inactive: -0.016 | inactive: -0.091 | inactive: 0.016 | inactive: -0.08 | inactive: -0.097 | inactive: -0.002 | inactive: 0.012 | inactive: 0.02 | –
PKN2 (UniProt Q16513) | inactive: 0.067 | inactive: 0.073 | inactive: -0.019 | inactive: -0.075 | inactive: 0.076 | inactive: -0.075 | inactive: 0.07 | inactive: -0.031 | inactive: -0.033 | inactive: -0.209 | inactive: -0.017 | inactive: -0.054 | active: -0.797 | inactive: 0.085 | inactive: -0.042 | inactive: -0.051 | inactive: 0.085 | inactive: 0.141 | inactive: -0.016 | –
PIGH (UniProt Q14442) | inactive: -0.036 | inactive: 0.068 | inactive: 0.049 | inactive: 0.027 | inactive: 0.042 | inactive: -0.03 | inactive: -0.065 | inactive: -0.054 | inactive: -0.005 | inactive: 0.009 | inactive: -0.207 | inactive: 0.022 | inactive: -0.004 | inactive: -0.017 | inactive: 0.023 | inactive: 0.014 | inactive: -0.004 | inactive: 0.139 | inactive: 0.096 | –
PLCG2 (UniProt P16885) | inactive: 0.059 | inactive: -0.357 | – | inactive: -0.075 | inactive: 0.288 | inactive: 0.038 | – | inactive: -0.085 | – | – | – | inactive: -0.074 | inactive: -0.14 | – | – | inactive: -0.033 | – | – | – | –
PLD3 (UniProt Q8IV08) | inactive: -0.012 | inactive: 0.029 | inactive: 0.054 | inactive: 0.023 | inactive: 0.04 | inactive: 0.024 | inactive: -0.061 | inactive: 0.006 | inactive: 0.001 | inactive: 0.048 | inactive: 0.022 | inactive: -0.031 | inactive: -0.042 | inactive: -0.039 | inactive: -0.022 | inactive: -0.079 | inactive: 0.05 | inactive: -0.005 | inactive: -0.023 | –
PIK3CA (UniProt P42336) | inactive: 0.038 | inactive: 0.045 | inactive: -0.101 | inactive: 0.056 | inactive: 0.028 | inactive: -0.034 | inactive: -0.055 | inactive: 0.136 | – | – | – | inactive: 0.06 | inactive: -0.322 | inactive: 0.222 | inactive: -0.029 | inactive: -0.099 | inactive: 0.049 | – | – | inactive: -0.668
PLA2G15 (UniProt Q8NCC3) | inactive: 0.064 | inactive: 0.004 | inactive: 0.038 | inactive: -0.02 | inactive: 0.026 | inactive: 0.035 | inactive: -0.007 | inactive: 0.021 | inactive: 0.01 | inactive: 0.052 | inactive: 0.071 | inactive: -0.012 | inactive: -0.018 | inactive: -0.057 | inactive: -0.004 | inactive: -0.024 | inactive: 0.113 | inactive: 0.006 | inactive: -0.141 | –
PIK3CD (UniProt O00329) | inactive: -0.044 | inactive: -0.224 | inactive: 0.095 | inactive: 0.181 | inactive: 0.114 | inactive: 0.241 | inactive: -0.052 | inactive: -0.063 | inactive: -0.077 | inactive: -0.013 | inactive: 0.005 | inactive: -0.137 | inactive: 0.237 | inactive: 0.032 | inactive: -0.391 | inactive: 0.104 | inactive: 0.116 | inactive: -0.024 | inactive: 0.259 | –
PIGBOS1, A0A0B4J2F0 | inactive: 0.017 | inactive: -0.095 | inactive: 0.287 | inactive: 0.038 | inactive: 0.072 | inactive: 0.055 | inactive: -0.082 | inactive: 0.063 | inactive: -0.018 | inactive: -0.062 | – | inactive: 0.145 | inactive: -0.065 | inactive: -0.1 | inactive: -0.017 | inactive: 0.03 | inactive: 0.035 | – | inactive: 0.085 | inactive: 0.048
PEX5 isoform 4 (UniProt P50542) | inactive: -0.133 | inactive: -0.143 | inactive: -0.036 | inactive: 0.076 | inactive: 0.048 | – | inactive: 0.016 | inactive: -0.082 | inactive: 0.097 | inactive: -0.078 | – | – | inactive: -0.035 | inactive: 0.145 | inactive: 0.038 | inactive: 0.066 | inactive: 0.123 | – | inactive: -0.072 | –
PIGT (UniProt Q969N2) | inactive: -0.045 | inactive: 0.037 | inactive: 0.002 | inactive: 0.034 | inactive: 0.009 | inactive: -0.001 | inactive: 0.011 | inactive: 0.018 | inactive: -0.006 | inactive: -0.003 | inactive: -0.016 | inactive: 0.01 | inactive: -0.009 | inactive: 0.022 | inactive: -0.067 | inactive: -0.089 | inactive: 0.002 | inactive: 0.045 | inactive: 0.01 | –
PITRM1 isoform 2 (UniProt Q5JRX3) | inactive: -0.004 | inactive: -0.008 | inactive: 0.012 | inactive: 0.005 | inactive: 0.118 | inactive: 0.007 | inactive: 0.041 | inactive: 0.03 | inactive: 0.023 | inactive: 0.153 | inactive: 0.045 | inactive: -0.045 | inactive: -0.046 | active: 0.239 | inactive: -0.173 | inactive: -0.026 | inactive: 0.062 | inactive: -0.042 | inactive: 0.006 | –
PLBD2 (UniProt Q8NHP8) | inactive: -0.022 | inactive: -0.048 | inactive: 0.026 | inactive: 0.01 | inactive: 0.009 | inactive: 0.037 | inactive: 0.01 | inactive: -0.02 | inactive: -0.018 | inactive: 0.018 | inactive: 0.04 | inactive: 0.009 | inactive: 0.003 | inactive: -0.071 | inactive: -0.01 | inactive: -0.106 | inactive: 0.025 | inactive: 0.001 | inactive: -0.023 | –
PIK3C3 (UniProt Q8NEB9) | inactive: -0.005 | inactive: -0.004 | inactive: -0.157 | inactive: -0.005 | inactive: 0.011 | inactive: 0.087 | inactive: -0.007 | inactive: 0.048 | inactive: -0.024 | inactive: 0.06 | inactive: -0.012 | inactive: -0.005 | inactive: 0.058 | inactive: 0.082 | inactive: 0.002 | inactive: -0.003 | inactive: 0.035 | inactive: 0.14 | inactive: 0.013 | –
PEX3 (UniProt P56589) | inactive: -0.003 | inactive: 0.037 | inactive: 0.02 | inactive: -0.004 | inactive: -0.013 | – | inactive: 0.026 | inactive: 0.079 | inactive: 0.016 | inactive: -0.152 | inactive: 0.059 | – | inactive: -0.054 | inactive: -0.137 | inactive: -0.091 | inactive: 0.019 | inactive: 0.073 | inactive: 0.011 | inactive: -0.076 | inactive: 0.047
PLEKHA5 isoform 6 (UniProt Q9HAU0) | inactive: 0.09 | inactive: 0.09 | inactive: 0.073 | inactive: 0.115 | inactive: 0.059 | – | – | inactive: 0.046 | inactive: 0.04 | inactive: -0.096 | – | – | inactive: -0.198 | – | inactive: -0.102 | inactive: -0.473 | – | – | inactive: 0.139 | –

Complete entries as entered above. Order of values: log2 fold change [1]	log2 fold change [2]	log2 fold change [3]	log2 fold change [4]	log2 fold change [5]	log2 fold change [6]	log2 fold change [7]	log2 fold change [8]	log2 fold change [9]	log2 fold change [10]	log2 fold change [11]	log2 fold change [12]	log2 fold change [13]	log2 fold change [14]	log2 fold change [15]	log2 fold change [16]	log2 fold change [17]	log2 fold change [18]	log2 fold change [19]	log2 fold change [20]
PEX5 isoform 4 (UniProt P50542) in the list: inactive: -0.133	inactive: -0.143	inactive: -0.036	inactive: 0.076	inactive: 0.048	–	inactive: 0.016	inactive: -0.082	inactive: 0.097	inactive: -0.078	–	–	inactive: -0.035	inactive: 0.145	inactive: 0.038	inactive: 0.066	inactive: 0.123	–	inactive: -0.072	–
PIK3C3 (UniProt Q8NEB9) in the list: inactive: -0.005	inactive: -0.004	inactive: -0.157	inactive: -0.005	inactive: 0.011	inactive: 0.087	inactive: -0.007	inactive: 0.048	inactive: -0.024	inactive: 0.06	inactive: -0.012	inactive: -0.005	inactive: 0.058	inactive: 0.082	inactive: 0.002	inactive: -0.003	inactive: 0.035	inactive: 0.14	inactive: 0.013	–
